Assay results published in patent US20240392024A1.

Assays:
[1] = target: mCRD4; assay: ELISA, plate coated with TNFR2-mCRD4
[2] = target: mCRD3; assay: ELISA, plate coated with TNFR2-mCRD3
[3] = target: mCRD2; assay: ELISA, plate coated with TNFR2-mCRD2
[4] = target: mCRD1; assay: ELISA, plate coated with TNFR2-mCRD1

Binder	binding [1]	binding [2]	binding [3]	binding [4]
anti-human TNFR2 mouse monoclonal antibody 7F2 (antibody, V domains shown) VH: QVTLKESGPGILQPSQTLSLTCSFSGFSLNTFGLGVGWIRQPSGKGLEWLTHIWWNDDKYYNPALKSRLTISRDTSENLVFLKIANVDTADTATYYCARIEGLRRFDYWGQGTTLTVSS VL: DIQMTQSPSSLSASLGGKVTITCKTSQDINKFIAWYQHKPGKGPRLLIHYTSTLQPGIPSRFSGSGSGRDYSFSISDLEPEDIATYYCLQYANLWAFGGGTKLEIK	binds	binds	no binding	no binding
anti-human TNFR2 mouse monoclonal antibody 12E12 (antibody, V domains shown) VH: EVQLQQSGAELVKPGASVKLSCTVSGFNIKDFYIHWVKQRPEQGLEWIGRVDPEDGNTEYAPNFQDRATMTTDTSSNTAYLQLSSLTSVDTAVYYCSTWDGFSYFDYWGLGTTLTVSS VL: QAVVTQESALTTSPGETVTLTCRSSTGPVTTNNYANWVQEKPDHLFTGLIGGTNDRAPGVPARFSGSLIGDKTALTITGTQTEDEAVYFCALWYRNHWVFGGGTKLTVL	binds	no binding	binds	binds

The next lines start with the values.

binding [1]	binding [2]	binding [3]	binding [4]	Binder
binds	no binding	binds	binds	anti-human TNFR2 mouse monoclonal antibody 27F6 (antibody, V domains shown) VH: EVQLQQSGTVLARPGASVKMSCKTSGYTFTSYWMHWVKQRPGQGLEWIGTIYPGNSDTSYNQKFKGKAKLTAVTSASTAYMELNSLTNEDSAVFYCTRENLLLRSYFFDYWGQGTTLTVSS VL: DIVMTQSPASLAVSLGQRATISCKASQSVDYDGDSYLNWYQQKPGQPPKLLIYAASNLPSGIPARFSGSGSGTDFTLNIHPVEEEDAATYYCQQSNEDPRTFGGGTKLEIK
binds	binds	no binding	binds	anti-human TNFR2 mouse monoclonal antibody 33C12 (antibody, V domains shown) VH: DVKLVESGGGLVKPGGSLKLSCAASGFTFSDYTMSWVRQTPEKRLEWVATISTGGSYTYYPDSVKGRFTISRDNAKNTLYLQMSSLKSEDTAMYYCTRDGGYDGDYFDYWGQGTTLTVSS VL: ENVLTQSPAIMSASPGEKVTMTCRASSSVSSSYLHWYQQKSGASPKLWIYRTSNLASGVPARFSGSGSGTSYSLTISSVEAEDAATYYCQQYSGYPLTFGAGTRLELK

Results are given in words; binding and its absence hold for the method and conditions named. A result given as binding can be weak or reduced; the word gives no strength.
